Results from the supplement of paper PMC10849652.
The list shows a part of the results.

Protein sequences, listed by entry. Tags and fused reporters are not part of them. Lines headed by an entry give the natural chain unless they say otherwise; changes in a name come on top.
UniProt Q92979: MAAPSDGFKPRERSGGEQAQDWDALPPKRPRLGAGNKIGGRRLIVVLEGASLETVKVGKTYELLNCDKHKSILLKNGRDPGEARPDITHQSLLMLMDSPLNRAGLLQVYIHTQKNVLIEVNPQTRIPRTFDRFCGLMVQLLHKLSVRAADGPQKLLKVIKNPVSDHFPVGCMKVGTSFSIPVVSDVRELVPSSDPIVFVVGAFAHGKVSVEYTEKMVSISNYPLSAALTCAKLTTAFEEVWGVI
UniProt Q9UBQ5, whole entry, looked up: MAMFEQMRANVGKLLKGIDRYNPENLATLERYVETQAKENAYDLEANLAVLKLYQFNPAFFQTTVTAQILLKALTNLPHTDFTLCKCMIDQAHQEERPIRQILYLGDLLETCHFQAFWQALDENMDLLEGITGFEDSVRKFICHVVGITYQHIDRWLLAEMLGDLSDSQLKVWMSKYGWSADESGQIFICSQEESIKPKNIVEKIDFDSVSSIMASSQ
UniProt Q9BY44: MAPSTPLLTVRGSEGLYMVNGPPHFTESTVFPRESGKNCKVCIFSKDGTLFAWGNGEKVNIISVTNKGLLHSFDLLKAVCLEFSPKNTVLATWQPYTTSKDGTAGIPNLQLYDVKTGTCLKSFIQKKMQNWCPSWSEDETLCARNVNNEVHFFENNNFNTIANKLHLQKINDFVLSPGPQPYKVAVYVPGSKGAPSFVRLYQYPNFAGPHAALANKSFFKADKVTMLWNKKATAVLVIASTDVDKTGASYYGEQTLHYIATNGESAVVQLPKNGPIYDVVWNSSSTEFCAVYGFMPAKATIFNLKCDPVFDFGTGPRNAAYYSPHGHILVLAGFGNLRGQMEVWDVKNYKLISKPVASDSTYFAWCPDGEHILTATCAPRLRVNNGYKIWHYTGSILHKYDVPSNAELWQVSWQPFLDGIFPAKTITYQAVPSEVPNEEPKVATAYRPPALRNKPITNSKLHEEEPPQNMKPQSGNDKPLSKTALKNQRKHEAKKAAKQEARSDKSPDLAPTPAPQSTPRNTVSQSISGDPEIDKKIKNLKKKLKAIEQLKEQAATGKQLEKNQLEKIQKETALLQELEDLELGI
UniProt Q14249: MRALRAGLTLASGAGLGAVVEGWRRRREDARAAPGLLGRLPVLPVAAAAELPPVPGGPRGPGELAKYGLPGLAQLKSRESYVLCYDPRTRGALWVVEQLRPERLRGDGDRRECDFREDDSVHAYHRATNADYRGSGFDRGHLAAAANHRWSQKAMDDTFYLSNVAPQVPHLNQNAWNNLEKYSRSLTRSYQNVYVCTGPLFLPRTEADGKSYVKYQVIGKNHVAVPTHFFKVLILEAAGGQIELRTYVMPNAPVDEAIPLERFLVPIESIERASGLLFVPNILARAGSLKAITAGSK
UniProt Q9Y262, whole entry, looked up: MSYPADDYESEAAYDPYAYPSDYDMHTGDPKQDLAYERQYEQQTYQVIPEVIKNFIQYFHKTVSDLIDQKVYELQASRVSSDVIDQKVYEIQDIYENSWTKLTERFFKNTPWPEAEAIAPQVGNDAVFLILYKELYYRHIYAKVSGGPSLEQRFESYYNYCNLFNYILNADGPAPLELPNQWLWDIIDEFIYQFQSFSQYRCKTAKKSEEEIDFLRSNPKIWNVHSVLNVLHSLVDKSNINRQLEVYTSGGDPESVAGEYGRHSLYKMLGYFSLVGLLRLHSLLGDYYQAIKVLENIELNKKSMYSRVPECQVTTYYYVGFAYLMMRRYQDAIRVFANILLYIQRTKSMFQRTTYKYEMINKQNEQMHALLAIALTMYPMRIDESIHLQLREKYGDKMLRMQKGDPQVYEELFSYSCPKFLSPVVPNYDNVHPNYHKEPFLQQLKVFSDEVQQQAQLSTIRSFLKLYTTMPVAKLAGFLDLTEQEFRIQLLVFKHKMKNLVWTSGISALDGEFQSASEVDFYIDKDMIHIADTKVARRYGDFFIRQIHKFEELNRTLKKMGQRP
UniProt P11171, whole entry, looked up: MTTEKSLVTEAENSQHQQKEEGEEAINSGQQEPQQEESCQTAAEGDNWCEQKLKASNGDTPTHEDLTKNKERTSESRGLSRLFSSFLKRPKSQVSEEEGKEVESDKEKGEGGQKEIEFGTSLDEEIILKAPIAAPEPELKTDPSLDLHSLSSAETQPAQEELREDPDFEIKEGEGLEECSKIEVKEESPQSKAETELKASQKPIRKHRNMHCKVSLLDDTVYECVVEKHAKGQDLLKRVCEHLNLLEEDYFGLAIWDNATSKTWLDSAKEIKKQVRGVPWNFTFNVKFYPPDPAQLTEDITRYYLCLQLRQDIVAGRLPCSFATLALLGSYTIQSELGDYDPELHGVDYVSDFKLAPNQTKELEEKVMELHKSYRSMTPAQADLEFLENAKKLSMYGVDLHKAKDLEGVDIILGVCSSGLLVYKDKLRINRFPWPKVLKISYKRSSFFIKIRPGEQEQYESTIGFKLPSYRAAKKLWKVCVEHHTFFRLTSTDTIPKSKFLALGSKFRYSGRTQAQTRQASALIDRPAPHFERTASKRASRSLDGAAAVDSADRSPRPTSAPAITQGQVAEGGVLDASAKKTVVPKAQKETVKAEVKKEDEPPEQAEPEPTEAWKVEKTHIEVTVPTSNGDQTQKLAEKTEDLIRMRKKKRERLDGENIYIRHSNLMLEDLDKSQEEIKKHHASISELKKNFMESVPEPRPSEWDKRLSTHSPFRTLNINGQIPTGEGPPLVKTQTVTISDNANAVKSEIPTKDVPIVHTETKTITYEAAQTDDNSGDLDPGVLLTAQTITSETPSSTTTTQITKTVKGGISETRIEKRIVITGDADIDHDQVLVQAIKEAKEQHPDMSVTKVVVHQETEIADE
UniProt P19525: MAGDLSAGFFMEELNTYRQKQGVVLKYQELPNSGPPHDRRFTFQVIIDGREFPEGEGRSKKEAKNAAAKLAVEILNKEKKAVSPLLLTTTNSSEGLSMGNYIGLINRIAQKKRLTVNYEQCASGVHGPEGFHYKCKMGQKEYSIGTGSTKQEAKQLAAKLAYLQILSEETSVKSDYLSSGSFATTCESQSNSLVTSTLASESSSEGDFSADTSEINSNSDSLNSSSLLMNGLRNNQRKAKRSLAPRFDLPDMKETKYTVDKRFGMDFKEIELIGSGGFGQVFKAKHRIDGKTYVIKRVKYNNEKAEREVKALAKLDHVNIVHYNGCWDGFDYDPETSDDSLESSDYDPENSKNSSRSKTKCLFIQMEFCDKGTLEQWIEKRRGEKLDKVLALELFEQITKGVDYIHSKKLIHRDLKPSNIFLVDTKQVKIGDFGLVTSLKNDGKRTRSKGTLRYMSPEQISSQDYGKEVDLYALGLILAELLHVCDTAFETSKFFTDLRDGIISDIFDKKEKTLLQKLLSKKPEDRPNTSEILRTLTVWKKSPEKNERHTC
UniProt P09104, whole entry, looked up: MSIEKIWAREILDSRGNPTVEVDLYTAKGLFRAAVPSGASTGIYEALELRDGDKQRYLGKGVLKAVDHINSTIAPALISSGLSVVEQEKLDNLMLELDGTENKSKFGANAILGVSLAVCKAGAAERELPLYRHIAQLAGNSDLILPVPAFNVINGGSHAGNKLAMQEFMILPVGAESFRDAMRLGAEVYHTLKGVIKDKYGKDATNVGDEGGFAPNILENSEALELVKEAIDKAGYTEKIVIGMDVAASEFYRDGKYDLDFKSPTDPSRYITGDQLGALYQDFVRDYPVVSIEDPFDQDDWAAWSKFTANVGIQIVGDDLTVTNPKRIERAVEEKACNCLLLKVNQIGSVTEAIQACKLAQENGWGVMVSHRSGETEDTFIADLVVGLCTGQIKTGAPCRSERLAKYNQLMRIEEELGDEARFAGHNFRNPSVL
UniProt O60841: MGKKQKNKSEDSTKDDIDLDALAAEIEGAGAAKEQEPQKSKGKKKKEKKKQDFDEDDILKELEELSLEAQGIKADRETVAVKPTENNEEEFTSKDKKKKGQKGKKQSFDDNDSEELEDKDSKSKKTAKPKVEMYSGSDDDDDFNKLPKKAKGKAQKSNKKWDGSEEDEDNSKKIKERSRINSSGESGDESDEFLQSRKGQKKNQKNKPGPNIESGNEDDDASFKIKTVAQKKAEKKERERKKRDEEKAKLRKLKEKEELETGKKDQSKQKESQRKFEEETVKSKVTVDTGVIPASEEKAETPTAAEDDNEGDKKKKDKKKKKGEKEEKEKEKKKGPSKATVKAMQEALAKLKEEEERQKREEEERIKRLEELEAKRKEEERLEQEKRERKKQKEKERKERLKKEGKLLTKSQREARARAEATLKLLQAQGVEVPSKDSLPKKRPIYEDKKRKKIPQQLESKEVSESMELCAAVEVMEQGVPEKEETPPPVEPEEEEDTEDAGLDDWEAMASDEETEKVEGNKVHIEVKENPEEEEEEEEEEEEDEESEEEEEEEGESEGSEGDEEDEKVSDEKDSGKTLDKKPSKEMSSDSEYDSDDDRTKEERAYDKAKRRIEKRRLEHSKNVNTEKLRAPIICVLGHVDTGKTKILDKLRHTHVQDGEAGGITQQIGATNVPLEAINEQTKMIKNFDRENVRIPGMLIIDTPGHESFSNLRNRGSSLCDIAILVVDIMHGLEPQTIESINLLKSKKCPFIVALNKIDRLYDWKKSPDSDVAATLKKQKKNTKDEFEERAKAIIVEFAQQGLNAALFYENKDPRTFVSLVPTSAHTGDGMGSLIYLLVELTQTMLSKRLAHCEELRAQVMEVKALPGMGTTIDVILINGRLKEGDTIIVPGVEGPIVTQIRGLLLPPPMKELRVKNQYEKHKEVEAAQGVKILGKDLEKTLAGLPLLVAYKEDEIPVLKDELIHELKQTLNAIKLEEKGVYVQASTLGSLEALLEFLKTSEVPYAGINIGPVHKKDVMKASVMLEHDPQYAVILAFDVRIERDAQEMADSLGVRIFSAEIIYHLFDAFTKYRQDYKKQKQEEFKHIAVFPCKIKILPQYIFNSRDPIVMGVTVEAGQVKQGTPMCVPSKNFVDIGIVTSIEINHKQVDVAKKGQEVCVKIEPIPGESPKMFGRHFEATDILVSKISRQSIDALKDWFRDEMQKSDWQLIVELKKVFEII

Columns and labels:
Test in all cases: log2 fold change, soluble protein after heating vs DMSO (PISA); higher = thermal stabilisation; K562 cells, 10 uM, 30 min; active = over 0.2 and 3.5 SD of the protein, either way, in both replicates (recomputed)
[1] = compound: C1=CC=C(C=C1)[C@H](COC2=CC3=C(C=C2)NC(=O)N3)NC(=O)C4=CC=CN(C4=O)CC5=CC(=C(C=C5)F)F
In short: (§1)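 K562 cells at 2×10^6 cells/mL were given 10 μM compound for 30 min. Aliquots then went through 3 min of heating across 48°C-58°C, were pooled, and were extracted in PBS with 0.5% NP-40 at 4°C, and the supernatant after 21,000xg for 90 min was quantified by TMTpro 16plex LC-MS/MS with channel sums equalised. Thermal stability relative to control samples, from duplicates, is given as log2 fold change.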

[2] = compound: CC1=C(SC2=C1C(=N[C@H](C3=NN=C(N32)C)CC(=O)N)C4=CC=C(C=C4)Cl)C
In short: as §1

[3] = compound: CC1=C2C(=CC=C1)N=C(N(C2=O)C3=CC=CC=C3C)CN4C=NC5=C(N=CN=C54)N
In short: as §1

[4] = compound: Cc1sc2c(c1C)C(c1ccc(Cl)cc1)=N[C@@H](CC(=O)OC(C)(C)C)c1nnc(C)n1-2
In short: as §1

[5] = compound: c1ccc([C@@H]2C[C@H]2NC2CCNCC2)cc1
In short: as §1

Measured: log2 fold change

EMG1 (UniProt Q92979)
inactive: [1] 0.023 | [2] -0.066 | [3] -0.08 | [4] 0.063 | [5] 0.024

EIF3K (UniProt Q9UBQ5)
inactive: [1] -0.05 | [2] 0.136 | [3] 0.036 | [4] -0.072 | [5] -0.04

EIF2A (UniProt Q9BY44)
inactive: [1] 0.019 | [2] -0.062 | [3] -0.045 | [4] 0.03 | [5] -0.008

ENDOG (UniProt Q14249)
inactive: [1] -0.019 | [2] 0.055 | [3] 0.144 | [4] -0.037 | [5] -0.012

EIF3L (UniProt Q9Y262)
inactive: [1] -0.013 | [2] 0.049 | [3] -0.001 | [4] -0.003 | [5] -0.032

EPB41 (UniProt P11171)
inactive: [1] -0.012 | [2] 0.036 | [3] 0.003 | [4] 0.009 | [5] -0.005

EIF2AK2 (UniProt P19525)
inactive: [1] 0.288 | [2] -0.392 | [3] -0.05 | [4] 0.278 | [5] -0.01

ENO2 (UniProt P09104)
inactive: [1] 0.04 | [2] 0.028 | [3] -0.027 | [4] -0.014 | [5] 0.052

EIF5B (UniProt O60841)
inactive: [1] -0.002 | [2] -0.004 | [3] -0.005 | [4] 0.045 | [5] -0.046

Copied from the listing (2 entries):
EIF2AK2 (UniProt P19525)
inactive: [1] 0.288 | [2] -0.392 | [3] -0.05 | [4] 0.278 | [5] -0.01

ENO2 (UniProt P09104)
inactive: [1] 0.04 | [2] 0.028 | [3] -0.027 | [4] -0.014 | [5] 0.052
